PubChem BioAssay AID1259308 | NCATS | 2017

- Aim: 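Genes whose loss raises luciferase production in HEK293 cells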 (primary screen)
- Cell system: human HEK293 embryonic kidney cells stably expressing firefly luciferase (HEK-CMV-Luc2-Hygro)
- Reagent: single siRNA against human genes, 0.8 pmol siRNA per well
- Duration: 72 h
- Measured: 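Reporter luminescence and viable-cell signal on separate replicate plates, given as percent of non-targeting control and median/MAD z-scores, plus per-cell luciferase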
- Scale: total luciferase, z-score and total luciferase, % of control: higher = more reporter protein produced; luciferase per cell, z-score: higher = more reporter output per viable cell; viable cells, % of control: higher = more viable cells
- Hit rule: 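An siRNA counts as active if its total luciferase robust z-score exceeds 3; genes with two or more such siRNAs out of three were retested with fresh siRNAs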
- Calls: active = raised luciferase; inactive = no rise
The deposit covers about 59,000 reagents; shown is a random part of them. Over the whole deposit, about 1,510 (2.6%) are marked active. 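Calls use total luciferase alone and ignore viability, so some active siRNAs may act by altering cell number.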 Unmarked entries are inactive. Reagents against one gene are numbered here. Reagent sequences are not shown.

The first 2 entries, ahead of the listing:
| target gene | reagent no. | total luciferase, z-score | total luciferase, % of control | luciferase per cell, z-score | viable cells, % of control |
| --- | --- | --- | --- | --- | --- |
| BCL2L11 | 1 | 2.01 | 122 | 1.94 | 81.7 |
| BCL2L11 | 2 | 0.134 | 84.6 | 0.225 | 89.1 |

The list itself, repeating the preview:
| target gene | reagent no. | total luciferase, z-score | total luciferase, % of control | luciferase per cell, z-score | viable cells, % of control |
| --- | --- | --- | --- | --- | --- |
| BCL2L11 | 1 | 2.01 | 122 | 1.94 | 81.7 |
| BCL2L11 | 2 | 0.134 | 84.6 | 0.225 | 89.1 |
| BCL2L11 | 3 | 0.674 | 95.3 | 1.33 | 75 |
| TPGS2 | 1 | -0.361 | 74.7 | -0.53 | 96 |
| TPGS2 | 2 | -1.11 | 59.7 | -1.23 | 92.3 |
| TPGS2 | 3 | 0.36 | 89.1 | -0.114 | 103 |
| GADD45A | 1 | -1.06 | 60.7 | -1.05 | 89.4 |
| GADD45A | 2 | 1.24 | 106 | 0.289 | 110 |
| GADD45A | 3 | -1.11 | 59.8 | -0.296 | 72.3 |
| RPS6 | 1 | -3.1 | 20.1 | -3.8 | 61.2 |
| RPS6 | 2 | -1.5 | 52.1 | 2.1 | 33.4 |
| RPS6 | 3 | -2.74 | 27.4 | -3.14 | 70.1 |
| TPPP | 1 | 1.11 | 104 | 1.13 | 86.2 |
| TPPP | 2 | -0.0249 | 81.4 | -0.316 | 98.9 |
| TPPP | 3 | 0.0633 | 83.1 | -0.171 | 97.2 |
| IMMP2L | 1 | 0.0279 | 82.4 | -0.484 | 105 |
| IMMP2L | 2 | -2.03 | 41.6 | -2.89 | 99.4 |
| IMMP2L | 3 | 1.89 | 119 | 0.891 | 106 |
| FEN1 | 1 | -1.1 | 59.9 | -0.638 | 79.2 |
| FEN1 | 2 | -0.264 | 76.6 | -0.866 | 108 |
| FEN1 | 3 | -0.335 | 75.2 | -0.748 | 102 |
| SPMIP3 | 1 | -0.569 | 70.6 | -1 | 103 |
| SPMIP3 | 2 | 0.03 | 82.5 | -0.453 | 104 |
| SPMIP3 | 3 | -0.76 | 66.8 | -0.623 | 87.9 |
| DPY19L2P2 | 1 | 0.193 | 85.7 | 1 | 73.5 |
| DPY19L2P2 | 2 | -0.529 | 71.4 | -0.268 | 85.6 |
| DPY19L2P2 | 3 | 1.6 | 114 | 0.283 | 118 |
| L1CAM-AS1 | 1 | 1.27 | 107 | 0.372 | 109 |
| L1CAM-AS1 | 2 | -0.517 | 71.6 | -0.168 | 83.6 |
| L1CAM-AS1 | 3 | 0.547 | 92.8 | 1.49 | 70.1 |
| KISS1R | 1 | -0.547 | 71 | 0.746 | 65.2 |
| KISS1R | 2 | 0.00487 | 82 | -0.347 | 100 |
| KISS1R | 3 | -0.731 | 67.3 | -0.377 | 83.1 |
| RCOR2 | 1 | -0.455 | 72.8 | 0.585 | 69.8 |
| RCOR2 | 2 | 1.96 | 121 | 2.18 | 76.1 |
| RCOR2 | 3 | -0.764 | 66.7 | -1.5 | 111 |
| DCTN1 | 1 | -1.71 | 47.9 | -0.268 | 57.5 |
| DCTN1 | 2 | -0.945 | 63.1 | -1.26 | 98.1 |
| DCTN1 | 3 | 2.38 | 129 | 1.12 | 108 |
| SNX31 | 1 | 0.144 | 84.8 | 0.111 | 92 |
| SNX31 | 2 | -0.219 | 77.5 | -0.233 | 92.1 |
| SNX31 | 3 | -0.0786 | 80.3 | -0.015 | 90.1 |
| TMEM267 | 1 | -0.0253 | 81.4 | -0.233 | 96.7 |
| TMEM267 | 2 | 2.23 | 126 | 1.14 | 105 |
| TMEM267 | 3 | -0.0533 | 80.8 | -0.241 | 96.2 |
| PIK3CB | 1 | 2.83 | 138 | 2.25 | 85.4 |
| PIK3CB | 2 | 0.24 | 86.7 | 0.211 | 91.6 |
| PIK3CB | 3 | -0.49 | 72.1 | -1.04 | 106 |
| NDUFA13 | 1 | -0.0369 | 81.2 | -0.203 | 95.7 |
| NDUFA13 | 2 | -1.01 | 61.8 | -0.548 | 79.8 |
| NDUFA13 | 3 | 0.705 | 95.9 | 0.66 | 90.1 |
| C11orf68 | 1 | 0.303 | 87.9 | 0.307 | 90.6 |
| C11orf68 | 2 | -2.43 | 33.5 | -2.44 | 71.2 |
| C11orf68 | 3 | -1.18 | 58.5 | 0.158 | 62.7 |
| RADIL | 1 | 4.56 (active) | 173 | 2.66 | 95.8 |
| RADIL | 2 | 0.204 | 85.9 | -0.244 | 102 |
| RADIL | 3 | 0.804 | 97.9 | 0.138 | 105 |
